{"source": "the supplement of paper PMC11546906", "note": "Structures can show the parent of a compound that is named as a salt. The list shows a part of the results. Single values are uncertain here, since repeats match poorly.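 FDA-approved drugs were each paired with colistin at one-eighth its MIC and screened against a multidrug-resistant, mcr-1-positive clinical E. coli isolate, with OD600 read after 24 h. Drug-free bacteria served as growth control, plain broth as blank. Combinations were active if OD600 dropped below 0.2.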", "data": [{"tested_on": "Escherichia coli 42 (mcr-1-positive clinical isolate)", "experiment": "OD600 after 24 h growth with compound plus colistin (absorbance units (OD600)); higher = more bacterial growth (less inhibition)", "details": "first compound 25 µM; colistin concentration 0.5 ug/mL; incubation time 24 h; 37 °C", "values": [{"smiles": "CO/N=C(\\C(=O)N[C@@H]1C(=O)N2C(C(=O)O)=C(COC(C)=O)CS[C@H]12)c1csc(N)n1", "note": "[Cefotaxime sodium] + CCC(C)CCCC(=O)N[C@@H](CCN)C(=O)N[C@H](C(=O)N[C@@H](CCN)C(=O)N[C@H]1CCNC(=O)[C@H]([C@@H](C)O)NC(=O)[C@H](CCN)NC(=O)[C@H](CCN)NC(=O)[C@H](CC(C)C)NC(=O)[C@@H](CC(C)C)NC(=O)[C@H](CCN)NC1=O)[C@@H](C)O [colistin]", "OD600": "active: 0.046"}, {"smiles": "Cc1nc2n(c(=O)c1CCN1CCC(c3noc4cc(F)ccc34)CC1)CCCC2", "note": "[Risperidone] + CCC(C)CCCC(=O)N[C@@H](CCN)C(=O)N[C@H](C(=O)N[C@@H](CCN)C(=O)N[C@H]1CCNC(=O)[C@H]([C@@H](C)O)NC(=O)[C@H](CCN)NC(=O)[C@H](CCN)NC(=O)[C@H](CC(C)C)NC(=O)[C@@H](CC(C)C)NC(=O)[C@H](CCN)NC1=O)[C@@H](C)O [colistin]", "OD600": "inactive: 0.996"}, {"smiles": "CN1CC2c3ccccc3Oc3ccc(Cl)cc3C2C1", "note": "(centres undefined) [Asenapine Maleate] + CCC(C)CCCC(=O)N[C@@H](CCN)C(=O)N[C@H](C(=O)N[C@@H](CCN)C(=O)N[C@H]1CCNC(=O)[C@H]([C@@H](C)O)NC(=O)[C@H](CCN)NC(=O)[C@H](CCN)NC(=O)[C@H](CC(C)C)NC(=O)[C@@H](CC(C)C)NC(=O)[C@H](CCN)NC1=O)[C@@H](C)O [colistin]", "OD600": "inactive: 0.899"}, {"smiles": "CN(C)C(=N)NC(=N)N", "note": "[Metformin] + CCC(C)CCCC(=O)N[C@@H](CCN)C(=O)N[C@H](C(=O)N[C@@H](CCN)C(=O)N[C@H]1CCNC(=O)[C@H]([C@@H](C)O)NC(=O)[C@H](CCN)NC(=O)[C@H](CCN)NC(=O)[C@H](CC(C)C)NC(=O)[C@@H](CC(C)C)NC(=O)[C@H](CCN)NC1=O)[C@@H](C)O [colistin]", "OD600": "inactive: 1.11"}, {"smiles": "CCCCc1oc2ccccc2c1C(=O)c1cc(I)c(OCCN(CC)CC)c(I)c1", "note": "[Amiodarone hydrochloride] + CCC(C)CCCC(=O)N[C@@H](CCN)C(=O)N[C@H](C(=O)N[C@@H](CCN)C(=O)N[C@H]1CCNC(=O)[C@H]([C@@H](C)O)NC(=O)[C@H](CCN)NC(=O)[C@H](CCN)NC(=O)[C@H](CC(C)C)NC(=O)[C@@H](CC(C)C)NC(=O)[C@H](CCN)NC1=O)[C@@H](C)O [colistin]", "OD600": "inactive: 1.08"}, {"smiles": "Clc1ccc(CCC(Cn2ccnc2)Sc2c(Cl)cccc2Cl)cc1", "note": "(centres undefined) [Butoconazole nitrate] + CCC(C)CCCC(=O)N[C@@H](CCN)C(=O)N[C@H](C(=O)N[C@@H](CCN)C(=O)N[C@H]1CCNC(=O)[C@H]([C@@H](C)O)NC(=O)[C@H](CCN)NC(=O)[C@H](CCN)NC(=O)[C@H](CC(C)C)NC(=O)[C@@H](CC(C)C)NC(=O)[C@H](CCN)NC1=O)[C@@H](C)O [colistin]", "OD600": "active: 0.051"}, {"smiles": "O=C1Cc2cc(CCN3CCN(c4nsc5ccccc45)CC3)c(Cl)cc2N1", "note": "[Ziprasidone] + CCC(C)CCCC(=O)N[C@@H](CCN)C(=O)N[C@H](C(=O)N[C@@H](CCN)C(=O)N[C@H]1CCNC(=O)[C@H]([C@@H](C)O)NC(=O)[C@H](CCN)NC(=O)[C@H](CCN)NC(=O)[C@H](CC(C)C)NC(=O)[C@@H](CC(C)C)NC(=O)[C@H](CCN)NC1=O)[C@@H](C)O [colistin]", "OD600": "inactive: 0.938"}, {"smiles": "Cc1cc(C2CCCCC2)n(O)c(=O)c1", "note": "[Ciclopirox olamine] + CCC(C)CCCC(=O)N[C@@H](CCN)C(=O)N[C@H](C(=O)N[C@@H](CCN)C(=O)N[C@H]1CCNC(=O)[C@H]([C@@H](C)O)NC(=O)[C@H](CCN)NC(=O)[C@H](CCN)NC(=O)[C@H](CC(C)C)NC(=O)[C@@H](CC(C)C)NC(=O)[C@H](CCN)NC1=O)[C@@H](C)O [colistin]", "OD600": "inactive: 0.963"}, {"smiles": "CCC(=O)O[C@]1(C(=O)CCl)[C@@H](C)C[C@H]2[C@@H]3CCC4=CC(=O)C=C[C@]4(C)[C@@]3(F)[C@@H](O)C[C@@]21C", "note": "[Clobetasol propionate] + CCC(C)CCCC(=O)N[C@@H](CCN)C(=O)N[C@H](C(=O)N[C@@H](CCN)C(=O)N[C@H]1CCNC(=O)[C@H]([C@@H](C)O)NC(=O)[C@H](CCN)NC(=O)[C@H](CCN)NC(=O)[C@H](CC(C)C)NC(=O)[C@@H](CC(C)C)NC(=O)[C@H](CCN)NC1=O)[C@@H](C)O [colistin]", "OD600": "inactive: 1.08"}]}]}
